This continues a long series; more values of the same kind are listed elsewhere.
Legend:
Assay type in all cases: cell-based
[1] = target: Histone-lysine N-methyltransferase EZH2 (Mus musculus) (UniProt Q61188); assay: Inhibition of EZH2 in mouse B16-F1 migrating cells assessed as fold change in H3K27me3-buffered regulated Lrch1-mRNA expression at 3 uM measured by ChIP-seq analysis relative to control cells
[2] = target: Histone-lysine N-methyltransferase EZH2 (Mus musculus) (UniProt Q61188); assay: Inhibition of EZH2 in mouse B16-F1 migrating cells assessed as fold change in H3K27me3-buffered regulated Snrnp48-mRNA expression at 3 uM measured by ChIP-seq analysis relative to control cells
[3] = target: Histone-lysine N-methyltransferase EZH2 (Mus musculus) (UniProt Q61188); assay: Inhibition of EZH2 in mouse B16-F1 migrating cells assessed as fold change in H3K27me3-buffered regulated Cep57-mRNA expression at 3 uM measured by ChIP-seq analysis relative to control cells
[4] = target: Histone-lysine N-methyltransferase EZH2 (Mus musculus) (UniProt Q61188); assay: Inhibition of EZH2 in mouse B16-F1 migrating cells assessed as fold change in H3K27me3-independent regulated Gbe1-mRNA expression at 3 uM measured by ChIP-seq analysis relative to control cells
[5] = target: Histone-lysine N-methyltransferase EZH2 (Mus musculus) (UniProt Q61188); assay: Inhibition of EZH2 in mouse B16-F1 migrating cells assessed as fold change in H3K27me3-buffered regulated Gm15754-mRNA expression at 3 uM measured by ChIP-seq analysis relative to control cells
[6] = target: Histone-lysine N-methyltransferase EZH2 (Mus musculus) (UniProt Q61188); assay: Inhibition of EZH2 in mouse B16-F1 migrating cells assessed as fold change in H3K27me3-independent regulated Car9-mRNA expression at 3 uM measured by ChIP-seq analysis relative to control cells
[7] = target: Histone-lysine N-methyltransferase EZH2 (Mus musculus) (UniProt Q61188); assay: Inhibition of EZH2 in mouse B16-F1 migrating cells assessed as fold change in H3K27me3-buffered regulated Macrod1-mRNA expression at 3 uM measured by ChIP-seq analysis relative to control cells
[8] = target: Histone-lysine N-methyltransferase EZH2 (Mus musculus) (UniProt Q61188); assay: Inhibition of EZH2 in mouse B16-F1 migrating cells assessed as fold change in H3K27me3-buffered regulated Kirrel-mRNA expression at 3 uM measured by ChIP-seq analysis relative to control cells
[9] = target: Histone-lysine N-methyltransferase EZH2 (Mus musculus) (UniProt Q61188); assay: Inhibition of EZH2 in mouse B16-F1 migrating cells assessed as fold change in H3K27me3-buffered regulated Clk4-mRNA expression at 3 uM measured by ChIP-seq analysis relative to control cells
[10] = target: Histone-lysine N-methyltransferase EZH2 (Mus musculus) (UniProt Q61188); assay: Inhibition of EZH2 in mouse B16-F1 migrating cells assessed as fold change in H3K27me3-buffered regulated Rlf-mRNA expression at 3 uM measured by ChIP-seq analysis relative to control cells
[11] = target: Histone-lysine N-methyltransferase EZH2 (Mus musculus) (UniProt Q61188); assay: Inhibition of EZH2 in mouse B16-F1 migrating cells assessed as fold change in H3K27me3-dependent regulated Lpar5-mRNA expression at 3 uM measured by ChIP-seq analysis relative to control cells
[12] = target: Histone-lysine N-methyltransferase EZH2 (Mus musculus) (UniProt Q61188); assay: Inhibition of EZH2 in mouse B16-F1 migrating cells assessed as fold change in H3K27me3-independent regulated Ankrd37-mRNA expression at 3 uM measured by ChIP-seq analysis relative to control cells
[13] = target: T1, RNA polymerase II (Mus musculus) (UniProt P08775+Q8CFI7+P97760+A0A3Q4L2S8+Q80UW8+P61219+P62488+Q923G2+P60898+O08740+Q63871+P62876); assay: Inhibition of RNA polymerase II in mouse B16-F1 migrating cells assessed as fold change in Map4k5-RNA stability at 0.1 mM measured by ChIP-seq analysis relative to control cells
[14] = target: T1, RNA polymerase II (Mus musculus); assay: Inhibition of RNA polymerase II in mouse B16-F1 migrating cells assessed as fold change in Klf10-RNA stability at 0.1 mM measured by ChIP-seq analysis relative to control cells
[15] = target: T1, RNA polymerase II (Mus musculus); assay: Inhibition of RNA polymerase II in mouse B16-F1 migrating cells assessed as fold change in Itgb1bp1-RNA stability at 0.1 mM measured by ChIP-seq analysis relative to control cells
[16] = target: T1, RNA polymerase II (Mus musculus); assay: Inhibition of RNA polymerase II in mouse B16-F1 migrating cells assessed as fold change in Rbm27-RNA stability at 0.1 mM measured by ChIP-seq analysis relative to control cells
[17] = target: T1, RNA polymerase II (Mus musculus); assay: Inhibition of RNA polymerase II in mouse B16-F1 migrating cells assessed as fold change in Pik3ca-RNA stability at 0.1 mM measured by ChIP-seq analysis relative to control cells
[18] = target: T1, RNA polymerase II (Mus musculus); assay: Inhibition of RNA polymerase II in mouse B16-F1 migrating cells assessed as fold change in Mtm1-RNA stability at 0.1 mM measured by ChIP-seq analysis relative to control cells
[19] = target: T1, RNA polymerase II (Mus musculus); assay: Inhibition of RNA polymerase II in mouse B16-F1 migrating cells assessed as fold change in Cyb561d2-RNA stability at 0.1 mM measured by ChIP-seq analysis relative to control cells
[20] = target: T1, RNA polymerase II (Mus musculus); assay: Inhibition of RNA polymerase II in mouse B16-F1 migrating cells assessed as fold change in Sept2-RNA stability at 0.1 mM measured by ChIP-seq analysis relative to control cells
[21] = target: T1, RNA polymerase II (Mus musculus); assay: Inhibition of RNA polymerase II in mouse B16-F1 migrating cells assessed as fold change in Tmem205-RNA stability at 0.1 mM measured by ChIP-seq analysis relative to control cells
[22] = target: T1, RNA polymerase II (Mus musculus); assay: Inhibition of RNA polymerase II in mouse B16-F1 migrating cells assessed as fold change in Hat1-RNA stability at 0.1 mM measured by ChIP-seq analysis relative to control cells
[23] = target: T1, RNA polymerase II (Mus musculus); assay: Inhibition of RNA polymerase II in mouse B16-F1 migrating cells assessed as fold change in Dmac2-RNA stability at 0.1 mM measured by ChIP-seq analysis relative to control cells
[24] = target: T1, RNA polymerase II (Mus musculus); assay: Inhibition of RNA polymerase II in mouse B16-F1 migrating cells assessed as fold change in P4ha2-RNA stability at 0.1 mM measured by ChIP-seq analysis relative to control cells
[25] = target: T1, RNA polymerase II (Mus musculus); assay: Inhibition of RNA polymerase II in mouse B16-F1 migrating cells assessed as fold change in Egln1-RNA stability at 0.1 mM measured by ChIP-seq analysis relative to control cells
[26] = target: T1, RNA polymerase II (Mus musculus); assay: Inhibition of RNA polymerase II in mouse B16-F1 migrating cells assessed as fold change in Ssr3-RNA stability at 0.1 mM measured by ChIP-seq analysis relative to control cells
[27] = target: T1, RNA polymerase II (Mus musculus); assay: Inhibition of RNA polymerase II in mouse B16-F1 migrating cells assessed as fold change in Tpr-RNA stability at 0.1 mM measured by ChIP-seq analysis relative to control cells
[28] = target: T1, RNA polymerase II (Mus musculus); assay: Inhibition of RNA polymerase II in mouse B16-F1 migrating cells assessed as fold change in Wdr82-RNA stability at 0.1 mM measured by ChIP-seq analysis relative to control cells
[29] = target: T1, RNA polymerase II (Mus musculus); assay: Inhibition of RNA polymerase II in mouse B16-F1 migrating cells assessed as fold change in Ankrd49-RNA stability at 0.1 mM measured by ChIP-seq analysis relative to control cells
[30] = target: T1, RNA polymerase II (Mus musculus); assay: Inhibition of RNA polymerase II in mouse B16-F1 migrating cells assessed as fold change in Shcbp1-RNA stability at 0.1 mM measured by ChIP-seq analysis relative to control cells

By UniProt entry, the sequences of proteins in these tests, tags left out.
UniProt Q61188, whole entry: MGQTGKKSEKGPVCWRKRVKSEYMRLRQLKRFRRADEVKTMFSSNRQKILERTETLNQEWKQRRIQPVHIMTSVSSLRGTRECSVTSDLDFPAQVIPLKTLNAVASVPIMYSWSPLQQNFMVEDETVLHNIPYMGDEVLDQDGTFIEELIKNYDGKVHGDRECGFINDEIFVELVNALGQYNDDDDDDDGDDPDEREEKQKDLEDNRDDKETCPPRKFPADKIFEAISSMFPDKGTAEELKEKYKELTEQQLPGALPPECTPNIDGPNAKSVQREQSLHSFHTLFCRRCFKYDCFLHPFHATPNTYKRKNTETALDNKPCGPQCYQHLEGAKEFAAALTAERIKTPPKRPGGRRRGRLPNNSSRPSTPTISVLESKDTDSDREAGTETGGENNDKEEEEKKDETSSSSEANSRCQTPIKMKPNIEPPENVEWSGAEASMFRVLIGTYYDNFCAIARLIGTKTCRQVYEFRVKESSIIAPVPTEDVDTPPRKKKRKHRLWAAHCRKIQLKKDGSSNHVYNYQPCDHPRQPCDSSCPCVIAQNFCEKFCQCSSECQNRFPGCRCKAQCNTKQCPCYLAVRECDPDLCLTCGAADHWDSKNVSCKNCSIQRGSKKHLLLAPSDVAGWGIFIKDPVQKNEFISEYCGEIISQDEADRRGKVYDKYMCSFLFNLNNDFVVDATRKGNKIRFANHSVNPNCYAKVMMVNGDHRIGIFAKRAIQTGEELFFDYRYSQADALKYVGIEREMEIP

CCCc1cc(C)[nH]c(=O)c1CNC(=O)c1cc(-c2ccnc(N3CCN(C)CC3)c2)cc2c1cnn2C(C)C
log2FC [1]: -0.65
log2FC [2]: -0.45
log2FC [3]: -0.54
log2FC [4]: 0.6
log2FC [5]: 1.53
log2FC [6]: 0.92
log2FC [7]: 0.45
log2FC [8]: -0.53
log2FC [9]: -0.47
log2FC [10]: -0.39
log2FC [11]: -0.3
log2FC [12]: -1.57

OC[C@H]1O[C@@H](n2cnc3cc(Cl)c(Cl)cc32)[C@H](O)[C@@H]1O
log2FC [13]: -0.54
log2FC [14]: -0.82
log2FC [15]: 0.43
log2FC [16]: -0.69
log2FC [17]: -0.46
log2FC [18]: -0.84
log2FC [19]: 0.45
log2FC [20]: -0.67
log2FC [21]: 0.7
log2FC [22]: -0.53
log2FC [23]: 0.63
log2FC [24]: 0.72
log2FC [25]: 0.86
log2FC [26]: -0.43
log2FC [27]: -0.76
log2FC [28]: -0.72
log2FC [29]: -0.87
log2FC [30]: -0.59
